The target of this experiment is ASK1-N (N-terminal fragment of ASK1 with the N-terminal coiled-coil domain, sequence 1-400), HA- or Flag-tagged (human) (UniProt Q99683). Description: co-IP; HEK293T transfected with combinations of ASK1-N-HA, ASK1-N-Flag, Trxlp-HA and human TRX1-HA; lysates precipitated with anti-flag antibody; blots with anti-Flag or anti-HA.

Amino acid sequences for entries named in this document (tags omitted). Residues count along the entry.
UniProt Q99683, residues 1-400: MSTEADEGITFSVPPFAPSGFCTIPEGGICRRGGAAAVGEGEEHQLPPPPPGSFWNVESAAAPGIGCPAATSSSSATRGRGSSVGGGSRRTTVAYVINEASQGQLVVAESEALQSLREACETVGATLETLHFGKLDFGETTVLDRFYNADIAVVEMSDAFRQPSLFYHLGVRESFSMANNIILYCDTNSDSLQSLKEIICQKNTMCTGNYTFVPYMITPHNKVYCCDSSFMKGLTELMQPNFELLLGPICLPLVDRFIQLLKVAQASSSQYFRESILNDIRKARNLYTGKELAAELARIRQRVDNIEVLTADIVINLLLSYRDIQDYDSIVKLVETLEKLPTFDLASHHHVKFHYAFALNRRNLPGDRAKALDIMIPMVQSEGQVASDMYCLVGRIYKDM

Experimental findings from publication PMC6636751 are described below.

Results are given in words; binding and its absence hold for the method and conditions named. In cells and extracts the contact can be indirect. Some entries that bind do so weakly or less than the wild type.

For “ASK1-N (N-terminal fragment of ASK1 with the N-terminal coiled-coil domain, sequence 1-400), HA- or Flag-tagged (from UniProt Q99683 1-400) (domain or fragment)”, the binding result was “binds”.
